Test results: US5208135A, “Preparation and use of dyes” (Minnesota Mining and Manufacturing Company, priority 1990, dated 1993)

Tests used:
[1] = Sensitisation of polymerisation: laser diode exposure of PVA-topcoated layer, toner development (Example 5); details: for Promotion of polymerisation: Example 5 protocol repeated
[2] = Speed enhancement by triphenylphosphine: minimum laser scan time to destroy tackiness (Example 6); details: 1.5 cm lines
[3] = Sensitisation of acrylate polymerisation: tungsten light exposure of laminate, acetone development (Example 4); details: 250W tungsten light source, 30 seconds
Procedure: The ability of Dye C of the invention and Control Dyes 1 and 2 to sensitise acrylate polymerisation was evaluated by the following protocol.
A solution of Dye C (0.lg), pentaerythritol tetraacrylate monomer (0.6g), commercially available from Ancomer Chemicals under the trade designation ATM 11, 4-butoxyphenyl phenyl iodonium trifluoroacetate (0.125g) shown below as IOD J, and poly(vinyl butyral) (Butvar B-76) (0.6 g), was made in butanone (95 g) in conditions of diminished light. [drawing 30]
The solution was coated onto 0.01 cm unsubbed poly(ethylene terephthalate) (PET) base at a wet thickness of 24μm and dried. A laminate was prepared by covering the monomer coating with a second 0.01 cm PET sheet by cold pressure rolling. The laminate was imagewise exposed to a 250W tungsten light source for 30 seconds using the stage of an overhead projector. […] Stripping of the cover sheet was more readily completed in exposed areas, whereas, in unexposed areas the monomer coatings partially adhered to the cover sheet. The latent image was developed by immersion in acetone, wherein exposed areas remained adhered to the PET base and unexposed areas were rapidly dissolved to obtain a relief image.

| SMILES | Width of tracks observed ([1]; 2mW laser diode, 820 nm, 10μm spot, 1 millisecond dwell time) | Toner powder attachment ([1]; 2mW laser diode, 820 nm, PVA barrier layer stripped off) | Minimum scan time required to destroy tackiness ([2]; coating lacking triphenylphosphine) | Minimum scan time required to destroy tackiness ([2]; coating with triphenylphosphine) | Loss of dye optical density upon irradiation [3] | Polymerisation of acrylate monomer [3] | Promotion of polymerisation [1] |
| --- | --- | --- | --- | --- | --- | --- | --- |
| N#CC(C#N)=C1C(=CC=CC=CC2=C(O)c3ccccc3C2=C(C#N)C#N)C(=O)c2ccccc21 [Dye B] | 100 μm | attach to unirradiated areas only | 30 s | 0.5 s |  |  |  |
| O=C1C(=CC=CC=CC=CC2=C(O)c3ccccc3C2=O)C(=O)c2ccccc21 [Control Dye 2] |  |  |  |  | complete loss of dye optical density | no evidence of polymerisation was obtained | did not promote polymerisation |
| N#CC(C#N)=C1C(=CC=CC=CC2=C(O)c3c(cccc3[N+](=O)[O-])C2=C(C#N)C#N)C(=O)c2c1cccc2[N+](=O)[O-] [Dye C] |  |  |  |  |  | shown to occur in the exposed areas of the monomer coating, but not in unexposed areas |  |
| CCOC(=O)C(C#N)=CC=CC=CC=CC(C#N)=C(O)OCC [Control Dye 1] |  |  |  |  | complete loss of dye optical density | no evidence of polymerisation was obtained | did not promote polymerisation |
